Among the data in PubChem BioAssay AID662 (National Center for Advancing Translational Sciences (NCATS), 2007) are AC50 values, retold here.

In general, AC50 refers to the concentration giving half of the maximal activity seen.

The other results are listed elsewhere or left out. The main result of the screen is listed elsewhere. These columns were measured beside it and carry no call. Compounds called inactive in the main read-out are mostly missing here. The note in brackets gives the kind of curve behind each potency; many fits are weak.

A short description of the test: Cell signaling CRE-BLA (Fsk stim). The conditions noted are these: CHO CRE-bla reporter (cAMP response element driving beta-lactamase), forskolin EC10, beta-lactamase ratio; measured here: 460 nm blue channel. The method, boiled down:
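Titrated compounds plus EC10 NKH 477 on CHO CRE-bla cells, 3 h, 37 °C. CCF4, 2 h RT. Ratio 460/530 nm → AC50.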
For `CN(C)c1nc(-c2cccc(C#N)c2)nc2ccccc12`, the AC50 was 10 µM [rising, partial curve].

Regarding `O=C(NCCc1c[nH]c2ccccc12)c1c(Cl)nc2sccn12`, the AC50 is 7.94 µM [rising, partial curve].

As for `CN(C)c1oc(-c2ccccc2Cl)nc1C#N`, the AC50 was 25.1 µM [rising, single point].

Consider `CCC12CC3CC(C1)CC(C(=O)O)(C3)C2`, for which the AC50 is 0.316 µM [rising, partial curve].

`CCCCN(c1ccccc1)S(=O)(=O)c1ccc2c(c1)CCN2C(=O)CCC(=O)O`: the AC50 is 0.316 µM [falling, full curve, poor fit].

Turning to `COc1cccc(Nc2ncc3nc(C)c(=O)n(CCc4ccccc4)c3n2)c1`, the AC50 was 6.31 µM [rising, partial curve].

`O=C(COC(=O)C1CC1)Nc1ccc(Oc2ccccc2)cc1`: the AC50 is 3.98 µM [falling, single point].

As to `Cc1n[nH]c(C)c1S(=O)(=O)N1CCCCCC1`, the AC50 is 0.126 µM [falling, full curve].

Turning to `Cn1cc(CC(=O)N2CCN(c3ccc(Cl)cc3)CC2)c2ccccc21`, the AC50 is 0.631 µM [falling, full curve].

With `Cn1c(=O)cnc2cnc(Nc3ccccc3)nc21`, the AC50 is 20 µM [rising, single point].

As to `O=C(COC(=O)c1cccs1)NCc1ccco1`, the AC50 was 12.6 µM [falling, partial curve].

Consider `CCOC(=O)c1cn(CC(=O)Nc2ccc(C(C)C)cc2)nn1`, for which the AC50 is 25.1 µM [rising, single point].

As to `CCNc1ncc2nc(-c3cn(C)c4ccccc34)c(=O)n(Cc3ccc(F)cc3)c2n1`, the AC50 is 12.6 µM [rising, partial curve].

For `CCC(=O)Nc1ccc(C(=O)Nc2ccc3c(c2)C(=O)N(CC2CCCO2)C3=O)cc1` (centres undefined), the AC50 is 25.1 µM [rising, single point].

Take `Cc1ccc2nc(NCCCNC(=O)c3cnccn3)c(C#N)cc2c1`: the AC50 is 12.6 µM [rising, partial curve].

Consider `COc1ccc(-c2nnc(-c3cccs3)o2)cc1OC`, for which the AC50 was 12.6 µM [rising, partial curve].

For `COc1ccc(-c2cc(C(F)(F)F)nc(SCC(=O)N3CCOCC3)n2)cc1OC`, the AC50 was 0.794 µM [rising, full curve].

Take `CCCc1c(C)c2cc(C)ccc2[nH]c1=O`: the AC50 was 0.00398 µM [falling, full curve, poor fit].

`CCOC(=O)C1CCN(C(=O)c2sc3nc(-c4ccccc4)cn3c2C)CC1`: the AC50 was 12.6 µM [rising, partial curve].

`C/C=C/CSc1nc2c(c(=O)[nH]c(=O)n2C)n1CCC`: the AC50 was 5.01 µM [rising, partial curve].

Take `COc1ncc2nc(C)c(=O)n(Cc3cccs3)c2n1`: the AC50 was 12.6 µM [rising, partial curve].

As to `O=C(NCCCN1CCN(CCCNC(=O)c2ccccc2F)CC1)c1ccccc1F`, the AC50 is 0.251 µM [rising, full curve].

`CCOC(=O)c1[nH]c2ccc(OCC)cc2c1NC(=O)CN1CCN(c2ccccn2)CC1`: the AC50 was 12.6 µM [rising, single point].

In the case of `CCOC(=O)N1CCN(C(=O)CCn2nc(-c3ccc(Cl)cc3)ccc2=O)CC1`, the AC50 is 0.0251 µM [falling, partial curve].

With `CCSc1nnc(NC(=O)CSc2nc3c(c(=O)n2-c2ccccc2)SCC3)s1`, the AC50 was 3.16 µM [rising, partial curve].

Consider `COC(=O)C1(S(=O)(=O)c2cccc3nsnc23)CC1`, for which the AC50 was 0.1 µM [falling, single point].

As for `COCCCn1c2nc3ccccc3nc2c2c(=O)n(Cc3ccc(Cl)cc3)cnc21`, the AC50 is 0.1 µM [falling, partial curve].

Consider `COCC(=O)NCCc1nc(-c2ccccc2)cs1`, for which the AC50 is 5.01 µM [falling, partial curve, poor fit].

As for `CCC(C)[C@H](NC(=O)NCc1ccccc1)C(=O)O` (some centres undefined), the AC50 is 0.631 µM [falling, full curve].

For the compound `O=C(CC1(O)C(=O)Nc2ccccc21)c1ccc2c(c1)OCO2` (centres undefined), the AC50 was 0.398 µM [rising, partial curve].

For `CCn1ncc2c1C(=O)NC1c3ccccc3C(=O)N21` (centres undefined), the AC50 is 10 µM [rising, partial curve].

Consider `COc1cccc(-c2nnc(N(C)C(=O)c3ccno3)s2)c1`, for which the AC50 is 0.02 µM [falling, full curve].

In the case of `CC[C@H](NC(=O)c1c(C)c(-c2ccccc2)nc2ccccc12)c1ccccc1`, the AC50 was 7.94 µM [falling, partial curve].

For `CCOC(=O)N1CCN(C(=O)Nc2ccc3nc(C)c(C)nc3c2)CC1`, the AC50 was 10 µM [rising, partial curve].

As for `O=C(NCCc1c[nH]c2ccccc12)C1Cc2ccccc2CN1C(=O)c1ccco1` (centres undefined), the AC50 was 7.94 µM [falling, partial curve].

Turning to `COc1ccc(C(=O)OCCN2CCOCC2)cc1OC`, the AC50 is 10 µM [rising, partial curve].

In the case of `Cc1ccccc1C(=O)Nc1ccc(Br)cn1`, the AC50 was 0.316 µM [rising, partial curve].

Regarding `Cc1[nH]nc(N=CC2=C(O)CC(c3ccco3)CC2=O)c1-c1ccccc1` (centres undefined), the AC50 is 25.1 µM [rising, single point].

Regarding `O=C(NCc1cccs1)[C@@H]1CSC2c3ccccc3C(=O)N21` (some centres undefined), the AC50 is 2.51 µM [falling, single point].

Consider `COc1ccccc1N1C(=O)CC(Nc2ccc(N3CCOCC3)cc2)C1=O` (centres undefined), for which the AC50 is 0.00398 µM [falling, full curve, poor fit].

For `CC(C)Oc1ccc(C2c3c(oc4ccccc4c3=O)C(=O)N2CCCN2CCOCC2)cc1` (centres undefined), the AC50 was 0.501 µM [rising, single point].

As for `CCc1c(C)nc(SCC(=O)Nc2ccc(Br)cc2)[nH]c1=O`, the AC50 was 10 µM [rising, partial curve].

For the compound `CCCOc1ccc(C(=O)Nc2ccc(N(C)C)cc2)cc1`, the AC50 was 1.58 µM [falling, partial curve, poor fit].

For `C=CCNC(=O)C(C#N)c1nc2ccccc2nc1N1CCN(Cc2ccccc2)CC1` (centres undefined), the AC50 was 12.6 µM [rising, partial curve].
